Measured values from PubChem BioAssay AID1259354 (Paczesny and Yang Labs, IUPUI and University of Michigan, 2018).
Several values for one entry are separate records, joined by “and”; a condition that tells them apart may be missing. Equal entries are not always repeated. Out of some 78,000 compounds screened, about 1,800 (2.3%) were called active. Inconclusive means that the source gave no clear call. Such entries were picked first, then a sample of the others. Rule as the data show it: active = inhibition above about 30%; inconclusive = mostly about 10% to 28%; inactive = weaker than that.

Sequences of proteins named here, by UniProt entry; tags and fusion partners are left off. A change or cut given only in a name is not applied to a line headed by its entry.
UniProt Q01638: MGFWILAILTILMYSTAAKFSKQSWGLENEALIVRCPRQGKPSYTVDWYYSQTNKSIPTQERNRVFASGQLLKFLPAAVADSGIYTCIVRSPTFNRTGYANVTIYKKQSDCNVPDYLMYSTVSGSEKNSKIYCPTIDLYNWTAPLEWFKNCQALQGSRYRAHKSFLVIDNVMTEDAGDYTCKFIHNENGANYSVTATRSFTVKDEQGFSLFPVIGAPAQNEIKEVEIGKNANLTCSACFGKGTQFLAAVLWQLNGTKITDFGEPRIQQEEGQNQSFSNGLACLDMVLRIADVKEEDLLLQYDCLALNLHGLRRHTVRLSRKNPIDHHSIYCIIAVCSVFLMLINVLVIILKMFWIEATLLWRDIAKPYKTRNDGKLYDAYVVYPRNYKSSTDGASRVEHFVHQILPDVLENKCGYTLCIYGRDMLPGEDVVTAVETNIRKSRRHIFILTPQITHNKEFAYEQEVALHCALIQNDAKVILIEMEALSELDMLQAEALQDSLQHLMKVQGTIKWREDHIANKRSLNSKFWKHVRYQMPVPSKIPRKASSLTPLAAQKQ

The molecules below were run against Interleukin-1 receptor-like 1 (Homo sapiens) (UniProt Q01638) (assay: blocks human ST2 binding to IL-33, primary screen, biochemical, AlphaLISA (AID 1259354)). Conditions: AlphaLISA ST2-Fc/biotin-IL-33 interaction, 1 h; at 17 µM, stronger effect = higher value.

Compound | inhibition
CC(C)Cn1cc(C(=O)NCCCN2CCOCC2)c2c3ccccc3n(C)c2c1=O | inconclusive: 12%
CC1CC(C)CN(c2ncnc3c2cnn3-c2ccccc2)C1 (configuration not stated) | inconclusive: 12%
COc1ccc(Cc2cnc(NC(=O)COc3ccccc3OC)s2)cc1 | inactive
CNCCC(Oc1ccccc1C)c1ccccc1 (configuration not stated) | inconclusive: 11%
O=C(O)c1cc(N2Cc3ccccc3C2)ccc1O | inconclusive: 17%
COc1ccc(C2=N/C(=C\c3coc4c(Cl)cc(Cl)cc4c3=O)C(=O)O2)cc1[N+](=O)[O-] | inconclusive: 25%
CC1CCc2c(sc(NC(=O)CSc3nnc4ccccn34)c2C#N)C1 (configuration not stated) | inactive
CCC(C)NC(=O)C1(C)CCC(=O)N1Cc1ccccc1Cl (configuration not stated) | inactive
COc1ccc(NC(=O)c2cc(CC(C)C)on2)cc1OC | inconclusive: 18%
O=C(Nc1ccnn1C1CCN(c2cnccn2)CC1)c1ccccc1Cl | inconclusive: 12%
CN1C[C@@H](NC(=O)c2ccc(C#N)cc2)C[C@H]1c1nc(-c2cncnc2)no1 | inconclusive: 29%
CC1(C)Nc2ccccc2C(=O)N1c1ccc(Br)cc1 | inconclusive: 12%
O=C1c2cccc3cccc(c23)C(=O)N1CCc1ccccc1 | inconclusive: 22%
COc1ccc(Nc2cc(C)nc(Nc3ccc(NC(=O)c4cccc(C(F)(F)F)c4)cc3)n2)cc1 | inconclusive: 28%
COc1ccccc1-c1noc(CCC(=O)N2CCCC2C(F)(F)F)n1 (configuration not stated) | inactive
CCN=C(NS(=O)(=O)c1ccc(Br)cc1)c1ccccc1 | inconclusive: 22%
Cc1cc(C(F)(F)F)n2ncc(C(=O)N3C[C@@H]4[C@H](C3)[C@H]3CC[C@@H]4O3)c2n1 | inactive
O=[N+]([O-])c1cc(-c2ncnn2-c2ccc(F)cc2)ccc1Cl | inconclusive: 16%
COc1ccnc(N2Cc3cnc(CC(C)C)nc3C2)n1 | inconclusive: 11%
COC(=O)c1cccc(CN2C(=O)SC(Nc3ccc(Cl)cc3)C2=O)c1 (configuration not stated) | inactive
COc1ccccc1C1C(C(=O)Nc2ccc(C)cn2)=C(C)NC2=C1C(=O)CCC2 (configuration not stated) | inactive
CC1(C)Cc2ccccc2-c2nc(-c3ccccc3)oc(=O)c21 | active: 41%
CC(=O)OC1c2cc(C)ccc2NC(c2cccc(Br)c2)C1(C)C (configuration not stated) | inactive
Cc1cc(C)c(-c2csc(NC(=O)c3ccc(S(=O)(=O)N4CCOCC4)cc3)n2)c(C)c1 | inactive
Cc1ccc(O)c(CN(C)Cc2nc3ccccc3n2C)c1 | inconclusive: 11%

Compound | inhibition
Cc1ccc(S(=O)(=O)N2CCN(c3nc(C)cc(N4CCOCC4)n3)CC2)cc1 | inactive
CC(C)c1cc(C(=O)N2CCc3nnc(CCc4ccccc4)n3CC2)no1 | inconclusive: 16%
Cc1ccc(CNc2ccc3c(c2)ncn3C)cc1 | inconclusive: 13%
CCCc1ccc(-c2ccc(/C=C/C(=O)O)cc2)nc1 | inconclusive: 28%
Cn1cccc1C(=O)N[C@H]1C[C@H]2C(=O)Nc3ccc(/C=C/c4ccccc4)cc3C(=O)N2C1 | inconclusive: 16%
CC(C)N1CCNC(=O)C1CC(=O)N(C)Cc1nc2ccccc2[nH]1 (configuration not stated) | inconclusive: 14%
O=C1C=CC(=NS(=O)(=O)c2ccccc2)C=C1Br | active: 31%
Nc1c(C(=O)NCCc2ccccc2)nnn1Cc1cccc(F)c1 | inactive
COc1ccc(CNc2ccc3c(c2)ncn3C(C)(C)C)cc1 | inconclusive: 16%
O=C(NC1CCCCCC1)C1CC(=O)N(C2CCCCCC2)C1 (configuration not stated) | inconclusive: 14%
COC(=O)c1c(NC(=O)COc2ccccc2Br)sc2c1CCC(C)C2 (configuration not stated) | inactive
CN(C)c1ccc(/C=C2/SC(=O)N(CCc3nnc(N)s3)C2=O)cc1 | inconclusive: 26%
O=C(COc1ccc2ccccc2c1)N1CCN=C1SCc1ccccc1F | inactive
Cc1cccc(CN2CCC(O)CC2)c1 | inconclusive: 10%
CCC1CCCCN1C(=O)c1cc2c(=O)n3ccccc3nc2n1C (configuration not stated) | inactive
O=C(Cc1ccc(F)cc1)Nc1ccc2c(c1)OC1(CCCCC1)O2 | inconclusive: 26%
Cc1ccc(S(=O)(=O)N2CCSC2c2ccc(Br)cc2)c(C)c1 (configuration not stated) | inconclusive: 13%
O=C(Nc1ccc(-c2cccc(F)c2)cc1)C1CCCN(C(=O)C2CCOCC2)C1 (configuration not stated) | inactive
CCCCOC(=O)C1=C(C)Nc2ncnn2C1c1ccc(OC)cc1 (configuration not stated) | inactive
Cc1cc(C(=O)Nc2cnn(Cc3ccccc3C)c2)no1 | inconclusive: 10%
COc1ccc(NC(=O)c2cc(C3CC3)on2)c(OC)c1 | inactive
N#Cc1c(C(F)(F)F)cc(-c2cccs2)nc1SCc1nc(N)nc(N2CCOCC2)n1 | inconclusive: 19%
COC1=C(OC)C(=O)c2ccccc2C1=O | inactive
CC(C)(C)c1ncc2c(n1)CN(C(=O)c1scc3c1OCCO3)C2 | inconclusive: 19%
CC1=NNC(=O)/C1=C(/C)C/C(C)=C1\C(=O)NN=C1C | inactive

Compound | inhibition
Cc1ccc(Cn2c(CNS(=O)(=O)c3ccc(F)cc3)nc3cccnc32)cc1 | inactive
O=C(Cn1c(=O)n(-c2ccc(F)c(Cl)c2)c(=O)c2sccc21)NC1CCCC1 | inconclusive: 13%
CCn1ccnc1CN(C)C1CCCN(CCCc2ccccc2)C1 (configuration not stated) | inconclusive: 13%
Cc1ccccc1NC(=O)N1CCCC(c2n[nH]c(=O)n2-c2ccccc2)C1 (configuration not stated) | inconclusive: 18%
CC(C)N(C(=O)Cn1c(Cl)nc2c1c(=O)n(C)c(=O)n2C)c1ccccc1 | inactive
COc1cc(NC(=O)c2noc3c2CCCC3)c(OC)cc1Cl | inconclusive: 18%
CCCCn1cnc2c(cnn2-c2ccc(Cl)cc2)c1=O | active: 30%
CCSc1oc(-c2ccc(C)cc2)nc1S(=O)(=O)c1ccccc1 | inactive
O=C(NC1Cc2ccccc2C1)c1ccc2oc(Cc3ccccc3)nc2c1 | inconclusive: 13%
O=[N+]([O-])c1ccccc1-c1ccc(CN2CCN(c3ccccc3F)CC2)o1 | inconclusive: 27%
Cc1c(CN2CCC3(CC2)C(=O)N(CCCc2cccnc2)C(=O)N3CC(C)C)cnn1C | inconclusive: 15%
CN(CCN1CCOCC1)C(=O)CC(c1ccccc1)c1ccccc1F (configuration not stated) | inconclusive: 16%
CCOC(=O)c1c(C)n(-c2ccc(C)cc2C)c2ccc(O)cc12 | inactive
O=C(Cn1cnc2ccccc2c1=O)c1ccccc1 | inconclusive: 15%
Cc1sc(NC(=O)c2ccco2)c(C(=O)O)c1C | inactive
N#Cc1c(-n2ncnc2-c2ccc3c(c2)OCO3)sc2c1CCCC2 | active: 47% and inconclusive: 22%
O=C(CN1C(=O)CCc2cc(S(=O)(=O)N3CCCCC3)ccc21)N1CCc2ccccc21 | inactive
Cc1ccc(SCc2nc3ccccn3c2Cl)cc1 | inconclusive: 14%
CC(C)(C)n1nc2c(c1NC(=O)c1cc(Br)ccc1Cl)CSC2 | inactive
Cc1ccc(NC(=O)c2ccc(Br)cc2)cc1[N+](=O)[O-] | inconclusive: 21%
CC1CCCCC1NC(=O)C1CCN(S(=O)(=O)c2cccc3cccnc23)CC1 (configuration not stated) | inconclusive: 13%
O=C1C(Nc2cccc(C(F)(F)F)c2)=C(N2CCOCC2)C(=O)c2ccccc21 | active: 67%
CC(C)N1CCN(CCn2cnc(-c3ccccc3)c2-c2ccsc2)CC1 | inconclusive: 13%
CCOc1ccc(-n2cc(-c3ccc(OC)cc3)[nH]c2=O)cc1 | inconclusive: 14%
COc1ccc2nc3oc(C(=O)NCc4cc(Br)ccc4OC)cc3cc2c1 | inactive

15 structures out of the list, arranged by heavy-atom count, smallest number first.
Compound | inhibition
COC1=C(OC)C(=O)c2ccccc2C1=O | inactive
Cc1sc(NC(=O)c2ccco2)c(C(=O)O)c1C | inactive
CC1=NNC(=O)/C1=C(/C)C/C(C)=C1\C(=O)NN=C1C | inactive
Cc1ccc(NC(=O)c2ccc(Br)cc2)cc1[N+](=O)[O-] | inconclusive: 21%
CCCCn1cnc2c(cnn2-c2ccc(Cl)cc2)c1=O | active: 30%
Cc1cc(C(=O)Nc2cnn(Cc3ccccc3C)c2)no1 | inconclusive: 10%
CC(C)(C)n1nc2c(c1NC(=O)c1cc(Br)ccc1Cl)CSC2 | inactive
CC(C)(C)c1ncc2c(n1)CN(C(=O)c1scc3c1OCCO3)C2 | inconclusive: 19%
N#Cc1c(-n2ncnc2-c2ccc3c(c2)OCO3)sc2c1CCCC2 | active: 47% and inconclusive: 22%
CC(C)N(C(=O)Cn1c(Cl)nc2c1c(=O)n(C)c(=O)n2C)c1ccccc1 | inactive
O=C(Cn1c(=O)n(-c2ccc(F)c(Cl)c2)c(=O)c2sccc21)NC1CCCC1 | inconclusive: 13%
CC1CCCCC1NC(=O)C1CCN(S(=O)(=O)c2cccc3cccnc23)CC1 (configuration not stated) | inconclusive: 13%
O=C(Nc1ccc(-c2cccc(F)c2)cc1)C1CCCN(C(=O)C2CCOCC2)C1 (configuration not stated) | inactive
N#Cc1c(C(F)(F)F)cc(-c2cccs2)nc1SCc1nc(N)nc(N2CCOCC2)n1 | inconclusive: 19%
Cc1c(CN2CCC3(CC2)C(=O)N(CCCc2cccnc2)C(=O)N3CC(C)C)cnn1C | inconclusive: 15%

Next part.

Compound | inhibition
CCOc1ccc2cc(C(N)=O)c(=Nc3ccccc3OC)oc2c1 | inconclusive: 16%
O=C1C(=O)N(Cc2ccccc2)c2ccc(Br)cc21 | active: 30%
O=C(Nc1ccc(Oc2ccccc2)cc1)N[C@H]1CO[C@H]2[C@@H]1OC[C@@H]2n1nnnc1-c1ccc2c(c1)OCO2 | inconclusive: 11%
N#CCCN(CCN1CCCC1)S(=O)(=O)c1ccc(-c2ccc([N+](=O)[O-])cc2)cc1 | inconclusive: 20%
COCC1CCN(Cc2nc(C(c3ccccc3)c3ccccc3)no2)CC1 | inconclusive: 16%
COc1ccc(C(=O)Nc2ccc(C)c(Cl)c2)cc1 | inactive
O=C(CCS(=O)(=O)c1cccc2nonc12)Nc1ccccc1F | inactive
COc1ccccc1/C=C/C1=NC(=C\c2coc3ccccc3c2=O)/C(=O)O1 | inconclusive: 24%
O=C(O)c1c2c(nc3ccccc13)CCN(S(=O)(=O)c1ccc(Cl)cc1)C2 | inactive
O=C(NCC1CCCN(C(=O)CC2=CCCCC2)C1)c1ccc(-c2ccccc2)cc1 (configuration not stated) | inactive
N#Cc1cc(C#N)c(SCC(=O)c2ccccc2)nc1N | inconclusive: 15%
Cc1ccn2c(NC(=O)c3cccc(F)c3)c(-c3ccccc3)nc2c1 | inactive
O=C1CCC(=O)N1CC(O)COc1ccc(OCC(O)CN2C(=O)CCC2=O)cc1 (configuration not stated) | inconclusive: 12%
O=C(CC1NC(=O)c2ccccc21)NCCCn1nnc2ccccc21 (configuration not stated) | inconclusive: 24%
COCCN(C)Cc1ccc(-c2nc(C)c(C)c(=O)[nH]2)cc1 | inconclusive: 10%
Cc1ncsc1CCC(=O)N1[C@@H]2CC[C@H]1CNC(=O)C2 | inconclusive: 23%
NC(=O)c1ccnc(N2CCN(C/C=C/c3ccccc3)CC2)c1 | inactive
CCOc1ccccc1C(=O)O/N=C(/N)c1ccncc1 | inconclusive: 26%
CCc1c(C)sc(NC(=O)c2cc(CC(C)C)on2)c1C#N | inconclusive: 10%
CCCN(C(=O)c1cnn2c1CCCC2)C1Cc2ccccc2C1 | inconclusive: 21%
Cc1cc(OCC(=O)Nc2ccccc2Cl)cc(C)c1Br | inactive
CCc1ccc(S(=O)(=O)N2CCN(c3nc(C)cc(N(C)C)n3)CC2)cc1 | inactive

A draw from above in order of formula weight, rising.
Compound | inhibition
CCc1c(C)sc(NC(=O)c2cc(CC(C)C)on2)c1C#N | inconclusive: 10%
COCC1CCN(Cc2nc(C(c3ccccc3)c3ccccc3)no2)CC1 | inconclusive: 16%
O=C1CCC(=O)N1CC(O)COc1ccc(OCC(O)CN2C(=O)CCC2=O)cc1 (configuration not stated) | inconclusive: 12%
